In this assay the target is T1, PDS5A with FLAG/streptavidin binding peptide dual epitope tag, from the gene-edited endogenous allele (human (endogenous in HCT116)) (UniProt Q29RF7).
T1 sequence: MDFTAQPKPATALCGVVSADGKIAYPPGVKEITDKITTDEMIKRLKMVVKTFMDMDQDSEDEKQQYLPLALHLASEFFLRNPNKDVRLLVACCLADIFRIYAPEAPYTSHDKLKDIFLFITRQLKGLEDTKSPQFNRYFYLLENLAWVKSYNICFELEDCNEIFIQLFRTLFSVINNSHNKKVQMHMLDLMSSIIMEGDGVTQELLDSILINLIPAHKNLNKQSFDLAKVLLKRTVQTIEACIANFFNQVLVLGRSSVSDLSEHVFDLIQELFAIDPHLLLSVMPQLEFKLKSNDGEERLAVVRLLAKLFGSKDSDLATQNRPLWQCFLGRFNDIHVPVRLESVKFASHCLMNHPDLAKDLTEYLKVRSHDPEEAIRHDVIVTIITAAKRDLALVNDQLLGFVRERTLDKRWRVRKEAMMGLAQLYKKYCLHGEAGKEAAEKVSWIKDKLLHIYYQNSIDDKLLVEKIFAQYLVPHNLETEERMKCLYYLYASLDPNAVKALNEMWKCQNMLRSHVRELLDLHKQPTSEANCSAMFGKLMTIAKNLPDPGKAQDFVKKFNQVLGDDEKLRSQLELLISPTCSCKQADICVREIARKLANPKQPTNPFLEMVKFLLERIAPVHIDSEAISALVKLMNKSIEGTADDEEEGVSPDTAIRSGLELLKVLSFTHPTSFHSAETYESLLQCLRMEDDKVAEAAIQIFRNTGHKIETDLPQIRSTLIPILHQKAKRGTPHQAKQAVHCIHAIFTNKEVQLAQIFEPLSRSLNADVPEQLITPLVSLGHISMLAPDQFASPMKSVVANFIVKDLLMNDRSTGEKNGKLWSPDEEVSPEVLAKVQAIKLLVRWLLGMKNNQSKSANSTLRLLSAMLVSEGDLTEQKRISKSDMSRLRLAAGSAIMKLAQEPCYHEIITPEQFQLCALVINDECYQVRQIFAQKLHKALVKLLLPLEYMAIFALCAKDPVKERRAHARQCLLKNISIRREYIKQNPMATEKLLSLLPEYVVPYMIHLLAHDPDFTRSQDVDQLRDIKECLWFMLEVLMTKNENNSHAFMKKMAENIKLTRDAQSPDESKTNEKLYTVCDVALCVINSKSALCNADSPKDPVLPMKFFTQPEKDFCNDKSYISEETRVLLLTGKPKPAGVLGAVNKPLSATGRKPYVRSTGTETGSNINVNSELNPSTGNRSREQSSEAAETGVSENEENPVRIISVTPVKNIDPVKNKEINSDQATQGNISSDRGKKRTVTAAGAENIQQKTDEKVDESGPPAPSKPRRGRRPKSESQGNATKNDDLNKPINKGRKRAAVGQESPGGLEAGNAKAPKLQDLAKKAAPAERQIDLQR
The assay is described as follows: affinity purification with mass spectrometry; dual-affinity purification (FLAG, then streptavidin) of dual epitope-tagged endogenous cohesin subunits from HCT116 nuclear extracts, mass spectrometry; primary data in ref. 13.

Experimental findings from publication PMC7948425 are described below.

No constants are given. Whether binding was seen depends on the method and setting. Binding seen in cells or lysates may run through a third protein. These calls come from enrichment with a bait or labelling near it, and not all partners need be listed. Sequences can lack the tags named with a protein.

B1: Ubiquitin-Specific Protease 13 (USP13), endogenous (enzyme, UniProt Q92995 1-863)
chain: MQRRGALFGMPGGSGGRKMAAGDIGELLVPHMPTIRVPRSGDRVYKNECAFSYDSPNSEGGLYVCMNTFLAFGREHVERHFRKTGQSVYMHLKRHVREKVRGASGGALPKRRNSKIFLDLDTDDDLNSDDYEYEDEAKLVIFPDHYEIALPNIEELPALVTIACDAVLSSKSPYRKQDPDTWENELPVSKYANNLTQLDNGVRIPPSGWKCARCDLRENLWLNLTDGSVLCGKWFFDSSGGNGHALEHYRDMGYPLAVKLGTITPDGADVYSFQEEEPVLDPHLAKHLAHFGIDMLHMHGTENGLQDNDIKLRVSEWEVIQESGTKLKPMYGPGYTGLKNLGNSCYLSSVMQAIFSIPEFQRAYVGNLPRIFDYSPLDPTQDFNTQMTKLGHGLLSGQYSKPPVKSELIEQVMKEEHKPQQNGISPRMFKAFVSKSHPEFSSNRQQDAQEFFLHLVNLVERNRIGSENPSDVFRFLVEERIQCCQTRKVRYTERVDYLMQLPVAMEAATNKDELIAYELTRREAEANRRPLPELVRAKIPFSACLQAFSEPENVDDFWSSALQAKSAGVKTSRFASFPEYLVVQIKKFTFGLDWVPKKFDVSIDMPDLLDINHLRARGLQPGEEELPDISPPIVIPDDSKDRLMNQLIDPSDIDESSVMQLAEMGFPLEACRKAVYFTGNMGAEVAFNWIIVHMEEPDFAEPLTMPGYGGAASAGASVFGASGLDNQPPEEIVAIITSMGFQRNQAIQALRATNNNLERALDWIFSHPEFEEDSDFVIEMENNANANIISEAKPEGPRVKDGSGTYELFAFISHMGTSTMSGHYICHIKKEGRWVIYNDHKVCASERPPKDLGYMYFYRRIPS
Regarding B1, the binding entry is reported as “binds”.
